The list shows only some results of the screen, not a fair sample: it is rich in T/C values a quarter to a half above the control, in often repeated tests (any T/C) and in doses without a T/C. Other doses and runs of a compound stand elsewhere. T/C: endpoint of the treated group in % of that of the vehicle group. Some entries give survivors of the animals treated and no T/C: the source holds a T/C of zero for them, seemingly a mark for toxic or unscored doses. Some survivor counts are full or nearly so, which does not show that the dose was tolerated: the source hardly ever lists a survival T/C far under the control, and the zero likely stands for such cases as well. Counts of survivors are from the toxicity check (mostly the fifth day) where no day follows; animals may have died later. Schedules are NCI's codes, taken here to give the interval after Q, in days (D) or hours (H), and the number of doses after X. Where survival is the endpoint, the PubChem record calls one and a half times the control and up active, and a quarter to a half above the control has no call in these data; cut-offs in other NCI protocols can differ. Some T/C values carry the count of animals alive at the toxicity check (mostly the fifth day); without a count, all were alive then. Some entries were tested several times; their values stand side by side, smallest first.
System: CD2F1 mice, L1210 leukemia ip, survival T/C
Experiment: NCI In Vivo Anticancer Drug Screen. Data for tumor model L1210 Leukemia (intraperitoneal) in CD2F1 (CDF1) mice
Details: higher T/C = longer survival
Outline: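 Read-out first: treated-group measurement over vehicle-control measurement, expressed as a ratio. Animals bore a transplanted tumor line and were dosed with compound or vehicle.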

[1] = T/C endpoint: mean survival time, dose: 100.0 mg/kg/injection, schedule: Q04DX003 (ip), vehicle: saline with Tween-80
[2] = T/C endpoint: mean survival time, dose: 200.0 mg/kg/injection, schedule: Q04DX003 (ip), vehicle: saline with Tween-80
[3] = T/C endpoint: mean survival time, dose: 400.0 mg/kg/injection, schedule: Q04DX003 (ip), vehicle: saline with Tween-80
[4] = T/C endpoint: mean survival time, dose: 200.0 mg/kg/injection, schedule: Q01DX009 (ip), vehicle: water
[5] = T/C endpoint: mean survival time, dose: 300.0 mg/kg/injection, schedule: Q01DX001 (ip), vehicle: saline
[6] = T/C endpoint: mean survival time, dose: 100.0 mg/kg/injection, schedule: Q01DX009 (ip), vehicle: saline with Tween-80

Cc1ccc(C(=Nc2ccccc2)N=P(c2ccccc2)(c2ccccc2)c2ccccc2)cc1
survivor count (T/C endpoint: median survival time, dose: 200.0 mg/kg/injection, schedule: Q01DX005 (ip), vehicle: saline with Tween-80): 2 of 6

Nc1cc2c(c[n+](Cc3ccccc3)c3ccccc23)c2ccccc12
survivor count (T/C endpoint: mean survival time, dose: 3.13 mg/kg/injection, schedule: Q04DX003 (ip), vehicle: other): 3 of 6

O=C(CF)[O][Sb]([O]C(=O)CF)([c]1ccccc1)([c]1ccccc1)[c]1ccccc1
survivor count (T/C endpoint: mean survival time, dose: 20.0 mg/kg/injection, schedule: Q01DX009 (ip), vehicle: saline with Tween-80): 2 of 6 | survivor count [1]: 0 of 6 | survivor count [2]: 0 of 6 | survivor count [3]: 0 of 6

COc1ccc(C(=O)/C=C/c2ccc3cc(OC)c(OC)cc3c2)cc1OC
survivor count (T/C endpoint: mean survival time, dose: 100.0 mg/kg/injection, schedule: Q01DX009 (ip), vehicle: water): 6 of 6 | survivor count [4]: 6 of 6 | survivor count (T/C endpoint: mean survival time, dose: 400.0 mg/kg/injection, schedule: Q01DX009 (ip), vehicle: water): 6 of 6

COc1ccc(-c2nc(C)cc3cc(OC)c(OC)cc23)cc1OC
survivor count [4]: 1 of 6

N#CCCCCN=[N+]=[N-]
survivor count [5]: 1 of 6

CCCCCCCCCCNC(=O)C[n+]1cccc(C(=O)NCc2ccccc2)c1
survivor count (T/C endpoint: mean survival time, dose: 25.0 mg/kg/injection, schedule: Q01DX009 (ip), vehicle: saline sonified): 3 of 6 | survivor count (T/C endpoint: mean survival time, dose: 50.0 mg/kg/injection, schedule: Q01DX009 (ip), vehicle: saline sonified): 1 of 6 | survivor count [1]: 6 of 6 | survivor count [2]: 0 of 6 | survivor count [3]: 0 of 6

CC(=O)On1nnc2ccccc2c1=O
survivor count (T/C endpoint: mean survival time, dose: 200.0 mg/kg/injection, schedule: Q01DX001 (ip), vehicle: distilled water + Tween-80): 0 of 6

[Cl][Pt]([Cl])[Cl].[NH-]C1CN2CCC1CC2 (centres undefined)
T/C (T/C endpoint: mean survival time, dose: 10.0 mg/kg/injection, schedule: Q04DX003 (ip), vehicle: saline with Tween-80): 139 % of control | T/C (T/C endpoint: mean survival time, dose: 20.0 mg/kg/injection, schedule: Q04DX003 (ip), vehicle: saline with Tween-80): 140 % of control | T/C (T/C endpoint: mean survival time, dose: 40.0 mg/kg/injection, schedule: Q04DX003 (ip), vehicle: saline with Tween-80): 148 % of control

Nc1nc(NC(c2ccc(Cl)cc2)c2ccc(Cl)cc2)c2[nH]cnc2n1
survivor count (T/C endpoint: mean survival time, dose: 300.0 mg/kg/injection, schedule: Q01DX001 (ip), vehicle: other): 0 of 6

CC(=O)Nc1ccc(O)c(O)c1
T/C (T/C endpoint: mean survival time, dose: 12.5 mg/kg/injection, schedule: Q01DX009 (ip), vehicle: saline with Tween-80): 92, 98, 113, 135 % of control | T/C (T/C endpoint: mean survival time, dose: 25.0 mg/kg/injection, schedule: Q01DX009 (ip), vehicle: saline with Tween-80): 95, 102 [5 of 6 alive], 106, 108 % of control | T/C (T/C endpoint: mean survival time, dose: 50.0 mg/kg/injection, schedule: Q01DX009 (ip), vehicle: saline with Tween-80): 99 [5 of 6 alive], 107, 107 [5 of 6 alive], 111 % of control | T/C [6]: 100, 108, 115, 118 % of control | T/C (T/C endpoint: mean survival time, dose: 200.0 mg/kg/injection, schedule: Q01DX009 (ip), vehicle: saline with Tween-80): 113, 117, 118, 120 % of control | T/C (T/C endpoint: mean survival time, dose: 400.0 mg/kg/injection, schedule: Q01DX009 (ip), vehicle: saline with Tween-80): 121, 126 [5 of 6 alive], 132, 134 % of control

N#Cc1cccc[n+]1Cc1ccc([N+](=O)[O-])cc1
survivor count [6]: 3 of 6

Nc1nc(N)c2cc(S(=O)(=O)c3ccccc3)ccc2n1
T/C (T/C endpoint: median survival time, dose: 400.0 mg/kg/injection, schedule: Q01DX009 (ip), vehicle: saline with Tween-80): 134 % of control | T/C (T/C endpoint: median survival time, dose: 800.0 mg/kg/injection, schedule: Q01DX009 (ip), vehicle: saline with Tween-80): 143 % of control

c1cncc(CCc2cccnc2)c1
survivor count (T/C endpoint: mean survival time, dose: 400.0 mg/kg/injection, schedule: Q04DX003 (ip), vehicle: saline): 0 of 3

CC(CNC1CCCCC1)OC(=O)c1ccc(N)cc1 (centres undefined)
survivor count (T/C endpoint: mean survival time, dose: 150.0 mg/kg/injection, schedule: Q01DX001 (ip), vehicle: saline): 0 of 6 | survivor count [5]: 0 of 6

Cc1cc(C)c(B(c2c(C)cc(C)cc2C)c2c(C)cc(C)cc2C)c(C)c1
survivor count [1]: 6 of 6

Source: PubChem BioAssay AID256 (DTP/NCI, 2004)
